Measured values published in publication doi:10.1101/2023.05.10.540045.
No constants are given. Whether binding was seen depends on the method and setting. In cells and extracts the contact can be indirect. Some results given as binding are weak or reduced against the parent protein; the word gives no strength. Values belong to the binder of their own block, whether it stands above or below them.

By UniProt entry, the sequences of proteins in these tests, tags left out.
UniProt Q8WWM9: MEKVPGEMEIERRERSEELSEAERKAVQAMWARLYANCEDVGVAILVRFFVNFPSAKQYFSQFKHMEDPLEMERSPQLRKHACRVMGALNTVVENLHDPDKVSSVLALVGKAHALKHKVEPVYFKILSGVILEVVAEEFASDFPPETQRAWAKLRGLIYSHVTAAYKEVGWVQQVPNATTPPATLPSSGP

Columns and labels:
[1] = target: human cytoglobin (hCYGB), stably expressed in HEK293 (human) (UniProt Q8WWM9); assay: proximity ligation
[2] = target: cytoglobin, endogenous in human temporal arteries (human (endogenous in temporal artery)) (UniProt Q8WWM9); assay: proximity ligation

binding [1]: binds
B1: High Mobility Group Box 2 (HMGB2), endogenous in HEK293 (protein, UniProt P26583 1-209)
chain: MGKGDPNKPRGKMSSYAFFVQTCREEHKKKHPDSSVNFAEFSKKCSERWKTMSAKEKSKFEDMAKSDKARYDREMKNYVPPKGDKKGKKKDPNAPKRPPSAFFLFCSEHRPKIKSEHPGLSIGDTAKKLGEMWSEQSAKDKQPYEQKAAKLKEKYEKDIAAYRAKGKSEAGKKGPGRPTGSKKKNEPEDEEEEEEEEDEDEEEEDEDEE

binding [2]: binds
B2: High Mobility Group Box 2 (HMGB2), endogenous in human temporal arteries (protein, UniProt P26583 1-209)
chain: B1 chain
